# According to the supplement of paper PMC8728848:
# The list shows a part of the results.
# B1: SUN4P (Saccharomyces cerevisiae), P53616 (protein)
# chain: MGSSHHHHHHSSGLVPRGSHNGSIYGDLADFSGPYEKFEDGTIPCGQFPSGQGVIPISWLDEGGWSGVENTDTSTGGSCKEGSYCSYACQPGMSKTQWPSDQPSDGRSIGGLLCKDGYLYRSNTDTDYLCEWGVDAAYVVSELSNDVAICLTDYPGTENMVIPTYVQAGDSLPLTVVDQDTYYTWQGLKTSAQYYVNNAGISVEDACVWGSSSSGVGNWAPLNFGAGSSDGVAYLSLIPNPNNGNALNFNVKIVAADDSSTVNGECIYENGSFSGGSDGCTVSVTAGKAKFVLYN
# Experiments:
# Assay in all cases: glycan array binding signal (z-score within array); higher = stronger binding
# Settings in all cases: glycan notation: IUPAC condensed, linker removed; mutation: R276L
# [1] = molecular target: Fuc(a1-2)Gal(b1-4)GlcNAc(b1-3)Gal(b1-4)GlcNAc(b1-2)Man(a1-3)[Fuc(a1-2)Gal(b1-4)GlcNAc(b1-3)Gal(b1-4)GlcNAc(b1-2)Man(a1-6)]Man(b1-4)GlcNAc(b1-4)GlcNAc
# How it was run: (§1)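 The binding signal is a Z-score computed within each array and averaged over linkers. Arrays of the same protein sequence at different concentrations or buffers were also averaged together. Data originate from 3228 arrays in the Consortium for Functional Glycomics database, kept only where the protein sequence was available.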
# [2] = molecular target: Fuc(a1-2)Gal(b1-4)GlcNAc(b1-3)Gal(b1-4)GlcNAc(b1-3)Gal(b1-4)GlcNAc
# How it was run: as §1
# [3] = molecular target: Fuc(a1-2)Gal(b1-4)GlcNAc(b1-3)GalNAc
# How it was run: as §1
# [4] = molecular target: Fuc(a1-2)Gal(b1-4)GlcNAc(b1-3)[Fuc(a1-2)Gal(b1-4)GlcNAc(b1-6)]GalNAc
# How it was run: as §1
# [5] = molecular target: Fuc(a1-2)Gal(b1-4)GlcNAc(b1-3)[Fuc(a1-3)[Gal(b1-4)]GlcNAc(b1-6)]Gal(b1-4)Glc
# How it was run: as §1
# [6] = molecular target: Fuc(a1-2)Gal(b1-4)GlcNAc(b1-6)GalNAc
# How it was run: as §1
# [7] = molecular target: Fuc(a1-2)Gal(b1-4)GlcNAc6S
# How it was run: as §1
# [8] = molecular target: Fuc(a1-2)Gal(b1-4)[Fuc(a1-3)]GlcNAc
# How it was run: as §1
# [9] = molecular target: Fuc(a1-2)Gal(b1-4)[Fuc(a1-3)]GlcNAc(b1-2)Man(a1-3)[Fuc(a1-2)Gal(b1-4)[Fuc(a1-3)]GlcNAc(b1-2)Man(a1-6)]Man(b1-4)GlcNAc(b1-4)[Fuc(a1-6)]GlcNAc
# How it was run: as §1
# [10] = molecular target: Fuc(a1-2)Gal(b1-4)[Fuc(a1-3)]GlcNAc(b1-2)[Fuc(a1-2)Gal(b1-4)[Fuc(a1-3)]GlcNAc(b1-4)]Man(a1-3)[Fuc(a1-2)Gal(b1-4)[Fuc(a1-3)]GlcNAc(b1-2)Man(a1-6)]Man(b1-4)GlcNAc(b1-4)GlcNAc
# How it was run: as §1
# [11] = molecular target: Fuc(a1-2)Gal(b1-4)[Fuc(a1-3)]GlcNAc(b1-3)Gal(b1-4)[Fuc(a1-3)]GlcNAc
# How it was run: as §1
# [12] = molecular target: Fuc(a1-2)Gal(b1-4)[Fuc(a1-3)]GlcNAc(b1-3)Gal(b1-4)[Fuc(a1-3)]GlcNAc(b1-3)Gal(b1-4)[Fuc(a1-3)]GlcNAc
# How it was run: as §1
# [13] = molecular target: Fuc(a1-2)Gal(b1-4)[Fuc(a1-3)]GlcNAc(b1-3)GalNAc
# How it was run: as §1
# [14] = molecular target: Fuc(a1-2)Gal(b1-4)[Fuc(a1-3)]GlcNAc(b1-3)[Neu5Ac(a2-6)Gal(b1-4)GlcNAc(b1-6)]Gal(b1-4)Glc
# How it was run: as §1
# [15] = molecular target: Fuc(a1-2)Gal3S(b1-4)GlcNAc
# How it was run: as §1
# [16] = molecular target: Fuc(a1-2)Gal6S(b1-3)GlcNAc
# How it was run: as §1
# [17] = molecular target: Fuc(a1-2)Gal6S(b1-3)GlcNAc6S
# How it was run: as §1
# Fuc(a1-2)Gal6S(b1-4)Glc = molecular target: Fuc(a1-2)Gal6S(b1-4)Glc
# How it was run: as §1
# [18] = molecular target: Fuc(a1-2)Gal6S(b1-4)Glc6S
# How it was run: as §1
# Fuc(a1-2)[Gal(a1-3)]Gal = molecular target: Fuc(a1-2)[Gal(a1-3)]Gal
# How it was run: as §1
# [19] = molecular target: Fuc(a1-2)[Gal(a1-3)]Gal(b1-3)GalNAc
# How it was run: as §1
# [20] = molecular target: Fuc(a1-2)[Gal(a1-3)]Gal(b1-3)GalNAc(b1-3)Gal(a1-4)Gal(b1-4)Glc
# How it was run: as §1
# [21] = molecular target: Fuc(a1-2)[Gal(a1-3)]Gal(b1-3)GlcNAc
# How it was run: as §1
# [22] = molecular target: Fuc(a1-2)[Gal(a1-3)]Gal(b1-3)GlcNAc(b1-2)Man(a1-3)[Fuc(a1-2)[Gal(a1-3)]Gal(b1-3)GlcNAc(b1-2)Man(a1-6)]Man(b1-4)GlcNAc(b1-4)GlcNAc
# How it was run: as §1
# [23] = molecular target: Fuc(a1-2)[Gal(a1-3)]Gal(b1-3)GlcNAc(b1-2)Man(a1-3)[Fuc(a1-2)[Gal(a1-3)]Gal(b1-3)GlcNAc(b1-2)Man(a1-6)]Man(b1-4)GlcNAc(b1-4)[Fuc(a1-6)]GlcNAc
# How it was run: as §1
# [24] = molecular target: Fuc(a1-2)[Gal(a1-3)]Gal(b1-3)GlcNAc(b1-3)GalNAc
# How it was run: as §1
# [25] = molecular target: Fuc(a1-2)[Gal(a1-3)]Gal(b1-3)GlcNAc(b1-6)GalNAc
# How it was run: as §1
# [26] = molecular target: Fuc(a1-2)[Gal(a1-3)]Gal(b1-4)Glc
# How it was run: as §1
# [27] = molecular target: Fuc(a1-2)[Gal(a1-3)]Gal(b1-4)GlcNAc
# How it was run: as §1
# [28] = molecular target: Fuc(a1-2)[Gal(a1-3)]Gal(b1-4)GlcNAc(b1-2)Man
# How it was run: as §1
binder,measurement,setting,value
B1,glycan array binding signal (z-score),[1],0.582
same,glycan array binding signal (z-score),[2],-0.515
same,glycan array binding signal (z-score),[3],-0.667
same,glycan array binding signal (z-score),[4],-0.351
same,glycan array binding signal (z-score),[5],0.444
same,glycan array binding signal (z-score),[6],-0.896
same,glycan array binding signal (z-score),[7],1.81
same,glycan array binding signal (z-score),[8],-0.469
same,glycan array binding signal (z-score),[9],1.16
same,glycan array binding signal (z-score),[10],0.881
same,glycan array binding signal (z-score),[11],-0.401
same,glycan array binding signal (z-score),[12],0.136
same,glycan array binding signal (z-score),[13],-0.919
same,glycan array binding signal (z-score),[14],0.164
same,glycan array binding signal (z-score),[15],0.469
same,glycan array binding signal (z-score),[16],-0.921
same,glycan array binding signal (z-score),[17],1.32
same,glycan array binding signal (z-score),Fuc(a1-2)Gal6S(b1-4)Glc,-0.976
same,glycan array binding signal (z-score),[18],-0.127
same,glycan array binding signal (z-score),Fuc(a1-2)[Gal(a1-3)]Gal,0.56
same,glycan array binding signal (z-score),[19],-0.474
same,glycan array binding signal (z-score),[20],0.023
same,glycan array binding signal (z-score),[21],0.964
same,glycan array binding signal (z-score),[22],0.856
same,glycan array binding signal (z-score),[23],-1.01
same,glycan array binding signal (z-score),[24],1.04
same,glycan array binding signal (z-score),[25],-0.788
same,glycan array binding signal (z-score),[26],-0.193
same,glycan array binding signal (z-score),[27],-0.808
same,glycan array binding signal (z-score),[28],0.867

# Pulled one by one from above, 2 records:
binder,measurement,setting,value
B1,glycan array binding signal (z-score),[23],-1.01
same,glycan array binding signal (z-score),[7],1.81
